In article PMC9589254 (Frontiers in Molecular Biosciences, 2022):
Some peptides are written in HELM: one residue between dots, names in brackets for other building blocks, links after the first $.

Assay: general procedure: Fmoc solid-phase peptide synthesis; rink-amide resin (GLC, Shanghai, China); HBTU/DIPEA in DMF
Details: whole synthesis

Row | Substance | final HPLC purity (run 1) [%] | final HPLC purity (run 2) [%]
1 | PEPTIDE1{K.E.R.T.S.R.[am]}$$$$V2.0 | 99.4 | 98 ± 1.0
2 | PEPTIDE1{S.M.D.M.S.I.E.[am]}$$$$V2.0 | 95.1 | 94 ± 1.5
